In publication PMC11405407:
Read-outs that look alike come from different tables or passages of the source. These are yes or no findings as the source states them, for the method shown. Binding seen in cells or lysates may run through a third protein. These calls come from enrichment with a bait or labelling near it, and not all partners need be listed.

Chains of the proteins cited; added tags and fusions are not shown.
UniProt Q92831: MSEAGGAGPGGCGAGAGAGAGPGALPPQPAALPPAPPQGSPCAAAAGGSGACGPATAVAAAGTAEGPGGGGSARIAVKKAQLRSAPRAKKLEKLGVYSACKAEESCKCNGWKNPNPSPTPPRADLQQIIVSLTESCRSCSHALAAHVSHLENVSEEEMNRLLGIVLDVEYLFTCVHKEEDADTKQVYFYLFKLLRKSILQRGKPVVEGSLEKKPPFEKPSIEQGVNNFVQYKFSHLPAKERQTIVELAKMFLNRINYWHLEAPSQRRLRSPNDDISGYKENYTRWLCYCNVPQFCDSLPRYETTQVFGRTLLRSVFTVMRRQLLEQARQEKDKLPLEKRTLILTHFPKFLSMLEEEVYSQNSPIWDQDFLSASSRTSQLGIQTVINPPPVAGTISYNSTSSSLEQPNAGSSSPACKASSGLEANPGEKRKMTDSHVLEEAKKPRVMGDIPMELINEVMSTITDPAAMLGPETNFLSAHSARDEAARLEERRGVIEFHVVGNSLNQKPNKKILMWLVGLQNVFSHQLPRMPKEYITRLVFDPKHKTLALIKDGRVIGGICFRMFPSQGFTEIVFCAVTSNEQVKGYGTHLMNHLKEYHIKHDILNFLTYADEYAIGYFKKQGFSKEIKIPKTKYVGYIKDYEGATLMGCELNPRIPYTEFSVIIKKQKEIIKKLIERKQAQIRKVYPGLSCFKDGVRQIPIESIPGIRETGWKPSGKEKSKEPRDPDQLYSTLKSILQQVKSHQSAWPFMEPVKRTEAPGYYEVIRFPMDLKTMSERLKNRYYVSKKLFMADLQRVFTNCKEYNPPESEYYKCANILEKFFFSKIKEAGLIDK

Assays:
[1] = target: Myc-tagged SNRNP200 (human) (UniProt O75643); assay: affinity purification with mass spectrometry; IP-LC-MS: HEK293T cells transfected with pCMV6-SNRNP200-Myc, immunoprecipitated with Protein A/G magnetic beads in IP buffer, bands specific to Myc-SNRNP200 cells digested with trypsin; control pCMV6-Entry
[2] = target: Myc-tagged SNRNP200 (human) (UniProt O75643); assay: as above; remark: listed apart in the source

PCAF (endogenous) (from UniProt Q92831 1-832) (enzyme)
binding [1]: binds

B1: RNF123 (endogenous) (enzyme, UniProt Q5XPI4 1-1314)
chain: MASKGAGMSFSRKSYRLTSDAEKSRVTGIVQEKLLNDYLNRIFSSSEHAPPAATSRKPLNFQNLPEHLDQLLQVDNEEEESQGQVEGRLGPSTVVLDHTGGFEGLLLVDDDLLGVIGHSNFGTIRSTTCVYKGKWLYEVLISSQGLMQIGWCTISCRFNQEEGVGDTHNSYAYDGNRVRKWNVTTTNYGKAWAAGDIVSCLIDLDDGTLSFCLNGVSLGTAFENLSRGLGMAYFPAISLSFKESVAFNFGSRPLRYPVAGYRPLQDPPSADLVRAQRLLGCFRAVLSVELDPVEGRLLDKESSKWRLRGQPTVLLTLAHIFHHFAPLLRKVYLVEAVLMSFLLGIVEKGTPTQAQSVVHQVLDLLWLFMEDYEVQDCLKQLMMSLLRLYRFSPIVPDLGLQIHYLRLTIAILRHEKSRKFLLSNVLFDVLRSVVFFYIKSPLRVEEAGLQELIPTTWWPHCSSREGKESTEMKEETAEERLRRRAYERGCQRLRKRIEVVEELQVQILKLLLDNKDDNGGEASRYIFLTKFRKFLQENASGRGNMPMLCPPEYMVCFLHRLISALRYYWDEYKASNPHASFSEEAYIPPQVFYNGKVDYFDLQRLGGLLSHLRKTLKDDLASKANIVIDPLELQSTAMDDLDEDEEPAPAMAQRPMQALAVGGPLPLPRPGWLSSPTLGRANRFLSTAAVSLMTPRRPLSTSEKVKVRTLSVEQRTREDIEGSHWNEGLLLGRPPEEPEQPLTENSLLEVLDGAVMMYNLSVHQQLGKMVGVSDDVNEYAMALRDTEDKLRRCPKRRKDILAELTKSQKVFSEKLDHLSRRLAWVHATVYSQEKMLDIYWLLRVCLRTIEHGDRTGSLFAFMPEFYLSVAINSYSALKNYFGPVHSMEELPGYEETLTRLAAILAKHFADARIVGTDIRDSLMQALASYVCYPHSLRAVERIPEEQRIAMVRNLLAPYEQRPWAQTNWILVRLWRGCGFGYRYTRLPHLLKTKLEDANLPSLQKPCPSTLLQQHMADLLQQGPDVAPSFLNSVLNQLNWAFSEFIGMIQEIQQAAERLERNFVDSRQLKVCATCFDLSVSLLRVLEMTITLVPEIFLDWTRPTSEMLLRRLAQLLNQVLNRVTAERNLFDRVVTLRLPGLESVDHYPILVAVTGILVQLLVRGPASEREQATSVLLADPCFQLRSICYLLGQPEPPAPGTALPAPDRKRFSLQSYADYISADELAQVEQMLAHLTSASAQAAAASLPTSEEDLCPICYAHPISAVFQPCGHKSCKACINQHLMNNKDCFFCKTTIVSVEDWEKGANTSTTSSAA
binding [2]: binds
